Source: PubChem BioAssay AID624331 (National Center for Advancing Translational Sciences (NCATS), 2012)
Inconclusive results, whose numbers are uncertain, are shown with a selection of clear calls. A potency beside an inconclusive call is a rough fit, not a confirmed value. Active and inactive are the calls of the source. Calls come from the whole dose curve; as a rule, active = well fitted activation curve with a large enough effect; inconclusive = small, poorly fitted or top-dose-only effect; inactive = no such curve, though single readings can be large or run the other way.

Experiment: qHTS assay for re-activators of p53 using a Luc reporter: Hit Validation with no p53 Expressed
Details: p53-null cells, luciferase reporter counter-screen; series mostly up to 46.1 µM
Procedure, shortened: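 Without p53 expression, cells (1000/well, Opti-MEM + 10% FBS) were exposed 24 h at 37 deg C to compounds in a 1:5 series from 10 mM stock (top 46.1 µM in well). Luminescent signal read 10 min after Amplite addition; actives flag unspecific activation.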
Potency is the fitted concentration of half-maximal effect.

| SMILES | Potency |
| --- | --- |
| O=C(NOCc1ccccc1)c1ccc(Cl)cc1 | inconclusive: 4.11 µM [activator, partial curve, poor fit] |
| Cc1ccc(C(=O)CN2C(=O)NC3(CCCCC3C)C2=O)s1 (centres undefined) | inconclusive: 23.1 µM [activator, single point] |
| Cc1ccc2oc(C(=O)Nc3cc(C)on3)c(C)c2c1 | active: 9.2 µM |
| Fc1cccc2sc(Nc3nnc(-c4ccco4)o3)nc12 | inconclusive: 4.11 µM [activator, single point] |
